# No constants are given. Whether binding was seen depends on the method and setting. Some binding calls cover weakened binding; strength is not graded here.
# B1: C. elegans MIGA2 cytosolic fragment with the coiled-coil of the linker region and the C-terminal domain (residues 106-496) (domain or fragment, UniProt Q21096 106-496, looked up)
# chain: SMNPIEADITSGQELCTELRKTIEKVHHNLEMVKNRSSKDMERSIKIEGILKGLKQVEDEIVLLVPQMEDFRDDNMEFYSVSGGSGYAGSVRTGRSRTLSVLSDDSFRSAVEEFACDIDDIDFVSDAANLDKNELRFLDEGMQAALNGEVKYRKSRMEFCKCDSETDFAAKLYCVRQALTNALKDEHKRVWLAKCGRTLLADFIRHTKQDPVKFFNAYDEMLEYVSNDRNEEQLRQDVEGRGVCETGFYDVAIDFIILDAFEDLKSPPSAVYSVTKNYFMSMSMKYSTLNTIIWSIIKSKRQRLKNPDGFIAKFYNISETVMPAITLGFLGTDERLGELCQYFKEQVVQFVLDVFNTQKVCYRSLEEMSEDVWIVMRNRLEAVQTRMSNEL
# notes: C. elegans MIGA (mitoguardin homolog), Uniprot Q21096, residues 106-496: coiled-coil segment of the linker region and the C-terminal domain; Co-purifies with glycerophospholipid from E. coli; Plasmids of the study are in Addgene (192832, 192833, 192834, 192835, 192837, 192866, 192867); also called CeMIGA2_(long); CeMIGA_(long); source: E. coli C43 (DE3), purified (Ni-NTA, sumo protease, second …)
# Molecular target: C. elegans MIGA2 cytosolic fragment with the coiled-coil of the linker region and the C-terminal domain (residues 106-496) (C. elegans) (UniProt Q21096)
# Assay: crystal structure; sitting drop, 18°C, 0.2 M sodium malonate pH 7.4, 22% PEG3350; spacegroup P3_(1)21, four monomers per asymmetric unit; molecular replacement with an AlphaFold2 model; both purified
binder,measurement,value
B1,binding,binds

# Source: paper PMC9597353, “Mitoguardin-2–mediated lipid transfer preserves mitochondrial morphology and lipid droplet formation” (The Journal of Cell Biology, 2022)
